# Results as given in PubChem BioAssay AID540276 (National Center for Advancing Translational Sciences (NCATS), 2011).
# Screen size: about 300,000 compounds; about 5,400 (1.8%) were called active. The inconclusive results got no clear call from the source; some entries with a clear call stand among them for comparison. Calls come from the whole dose curve; tested in HEK293 cells. A potency beside an inconclusive call is a rough fit, not a confirmed value.
# Assay: qHTS for inhibitors of binding or entry into cells for Marburg Virus
# Conditions: Marburg virus pseudotyped entry inhibition, cell reporter; series mostly up to 37.8 µM
# Potency is the fitted concentration of half-maximal effect.
row,Structure (SMILES),Potency
1,O=C(CSc1nnc(-c2ccc(F)cc2)o1)N1CCCCC1,"inconclusive: 10 µM [activator, partial curve, poor fit]"
2,COc1ccc(-c2cc(-c3nnc(COC(=O)C4CC4C)o3)c3ccccc3n2)cc1OC (stereo not drawn),"inconclusive: 8.91 µM [inhibitor, partial curve, poor fit]"
3,COc1ccc(N(CC(=O)Nc2cccc(Cl)c2C)S(=O)(=O)c2c(C)nn(C)c2C)cc1,inactive
4,Cc1cccc(OCCCC(=O)N2CCCc3ccccc32)c1C,inactive
5,O=C(COC(=O)COc1ccc(Br)cc1)NC1CCCC1,"inconclusive: 0.794 µM [activator, single point]"
6,CCOC(=O)c1ccc(NC(=O)CN2CCN(Cc3ccccc3)CC2)cc1,"inconclusive: 35.5 µM [inhibitor, single point]"
7,ONC(=Nc1ccc(Cl)cc1)c1ccccc1,inactive
8,CC(C)C(=O)N1N=C(c2ccc(NS(C)(=O)=O)cc2)CC1c1cccs1 (stereo not drawn),"inconclusive: 7.08 µM [inhibitor, partial curve]"
9,COc1ccc(C)cc1NC(=O)CC1COc2ccccc2O1 (stereo not drawn),"inconclusive: 2.82 µM [activator, partial curve, poor fit]"
10,CCN(Cc1ccncc1)C(=O)c1ccccc1NS(=O)(=O)c1ccc(F)cc1,inactive
11,CCOC(=O)C1(Cc2ccccc2C)CCCN(C(=O)c2ccccn2)C1 (stereo not drawn),inactive
12,Oc1ccc(/C=N/Nc2ccc(C(F)(F)F)cn2)cc1,"inconclusive: 3.98 µM [activator, partial curve, poor fit]"
13,CCNC(=O)CCSc1nnc(-c2ccco2)o1,"inconclusive: 0.282 µM [activator, full curve, poor fit]"
14,COc1ccc(NC(=O)Nc2ccccc2F)cc1Cl,"inconclusive: 25.1 µM [activator, single point]"
15,CCNC(C(=O)c1c[nH]c2c(CC)cccc12)c1ccccc1 (stereo not drawn),"inconclusive: 22.4 µM [inhibitor, single point]"
16,Clc1cccc(OCCCN2CCCC2)c1Cl,"inconclusive: 29.1 µM [inhibitor, single point]"
17,O=C(Nc1ccc2c(c1)OCO2)c1ccccc1,"inconclusive: 8.91 µM [inhibitor, partial curve, poor fit]"
18,Cc1ccc(C(=O)CSc2nc3ccccc3o2)cc1,inactive
19,CCC/C(O)=C1\C(=O)CC(C)(C)CC1=Nc1ccccc1OC,"inconclusive: 0.562 µM [inhibitor, single point]"
20,CC(=O)N1c2ccc(S(=O)(=O)N3CCC(C(=O)Nc4cccc(F)c4)CC3)cc2CC1C (stereo not drawn),inactive
21,O=C(Nc1cc(S(=O)(=O)N2CCOCC2)ccc1Cl)c1cc([N+](=O)[O-])ccc1Cl,"inconclusive: 25.1 µM [inhibitor, single point]"
22,CN1CCN(/N=C/c2ccc(N(C)c3ccccc3)cc2)CC1,"inconclusive: 22.4 µM [inhibitor, single point]"

row,Structure (SMILES),Potency
1,CN(C)CCCNS(=O)(=O)c1ccc(-n2nnc3ccccc32)c([N+](=O)[O-])c1,"inconclusive: 35.5 µM [inhibitor, single point]"
2,CCOCCCNC(=O)C(Cc1ccccc1)NS(=O)(=O)c1ccc2c(c1)c(=O)n(C)c(=O)n2C (stereo not drawn),"inconclusive: 5.62 µM [activator, single point]"
3,O=C(Nc1cccc(Cl)c1)c1cccc(Oc2ccc([N+](=O)[O-])cc2Cl)c1,inactive
4,CC(C)c1ccc(N(CC(=O)NN=C2CCN(C)CC2)S(=O)(=O)c2ccccc2)cc1,inactive
5,CC(CC(=O)Nc1ccc(Cl)c([N+](=O)[O-])c1)c1ccccc1 (stereo not drawn),"inconclusive: 20 µM [inhibitor, partial curve, poor fit]"
6,O=C(NC(=S)Nc1ccccc1N1CCCCC1)c1cccs1,inactive
7,Cc1ccccc1-n1c(SCC(=O)NCC2CCCO2)nc2c([nH]c3ccccc32)c1=O (stereo not drawn),"inconclusive: 35.5 µM [inhibitor, partial curve, poor fit]"
8,Cc1ccc(S(=O)(=O)NCc2ccc(/C=C(/C#N)C(=O)NCc3ccccc3)o2)cc1,"inconclusive: 1.16 µM [activator, single point]"
9,CC(C)C(C(=O)NCC1CCCO1)N(Cc1cccs1)C(=O)CNS(=O)(=O)c1ccccc1 (stereo not drawn),"inconclusive: 1.78 µM [activator, partial curve, poor fit]"
10,CN(C)S(=O)(=O)c1cccc(COC(=O)c2ccc3c(c2)OCO3)c1,inactive
11,CCCC1CCC(c2nc(-c3cccnc3)no2)CC1 (stereo not drawn),"inconclusive: 29.1 µM [activator, single point]"
12,COc1ccc(/C=C2\C(=O)NC(=S)N2C(=O)c2ccc(F)cc2)cc1,"inconclusive: 10 µM [inhibitor, partial curve, poor fit]"
13,COc1ccccc1N1CCN(S(=O)(=O)Cc2ccccc2Cl)CC1,"inconclusive: 18.3 µM [inhibitor, single point]"
14,Oc1ccccc1CNc1ccc(OC(F)(F)F)cc1,inactive
15,COc1cc(Cl)c(C)cc1NC(=O)c1cn(C2CCCC2)c(=O)c2c1c1ccccc1n2C,"inconclusive: 31.6 µM [activator, single point]"
16,COc1ccc(C(=O)Nc2ccc3nc(N4CCC(C)CC4)cc(C)c3c2)cc1,"inconclusive: 17.8 µM [activator, single point]"
17,O=C1CCOc2cc(OCc3ccccc3)ccc21,"inconclusive: 29.1 µM [inhibitor, single point]"
18,CCOC(=O)CNC(=O)CSc1nnc(-c2cccc(C)c2)n1-c1ccc(OC)cc1,inactive
19,COc1ccc(N(C(=O)C(C)C)S(=O)(=O)c2cccs2)cc1,"inconclusive: 29.1 µM [inhibitor, single point]"
20,Cc1ccc(-c2nc(N/N=C/c3ccccc3[N+](=O)[O-])c3ccccc3n2)cc1,"inconclusive: 8.2 µM [inhibitor, partial curve, poor fit]"
21,Cc1cccc2cc(CN(Cc3cccs3)C(c3nnnn3C3CCCC3)C(C)C)c(=O)[nH]c12 (stereo not drawn),"inconclusive: 0.0891 µM [activator, full curve, poor fit]"

# Laid out differently: 12 of the compounds above
row	Structure (SMILES)	Potency
4	CC(C)c1ccc(N(CC(=O)NN=C2CCN(C)CC2)S(=O)(=O)c2ccccc2)cc1	inactive
5	CC(CC(=O)Nc1ccc(Cl)c([N+](=O)[O-])c1)c1ccccc1 (stereo not drawn)	inconclusive: 20 µM [inhibitor, partial curve, poor fit]
6	O=C(NC(=S)Nc1ccccc1N1CCCCC1)c1cccs1	inactive
7	Cc1ccccc1-n1c(SCC(=O)NCC2CCCO2)nc2c([nH]c3ccccc32)c1=O (stereo not drawn)	inconclusive: 35.5 µM [inhibitor, partial curve, poor fit]
8	Cc1ccc(S(=O)(=O)NCc2ccc(/C=C(/C#N)C(=O)NCc3ccccc3)o2)cc1	inconclusive: 1.16 µM [activator, single point]
9	CC(C)C(C(=O)NCC1CCCO1)N(Cc1cccs1)C(=O)CNS(=O)(=O)c1ccccc1 (stereo not drawn)	inconclusive: 1.78 µM [activator, partial curve, poor fit]
10	CN(C)S(=O)(=O)c1cccc(COC(=O)c2ccc3c(c2)OCO3)c1	inactive
11	CCCC1CCC(c2nc(-c3cccnc3)no2)CC1 (stereo not drawn)	inconclusive: 29.1 µM [activator, single point]
12	COc1ccc(/C=C2\C(=O)NC(=S)N2C(=O)c2ccc(F)cc2)cc1	inconclusive: 10 µM [inhibitor, partial curve, poor fit]
13	COc1ccccc1N1CCN(S(=O)(=O)Cc2ccccc2Cl)CC1	inconclusive: 18.3 µM [inhibitor, single point]
14	Oc1ccccc1CNc1ccc(OC(F)(F)F)cc1	inactive
15	COc1cc(Cl)c(C)cc1NC(=O)c1cn(C2CCCC2)c(=O)c2c1c1ccccc1n2C	inconclusive: 31.6 µM [activator, single point]
